Values quoted from earlier work, collected in patent US11655308B2, “HM-3 fusion protein and application thereof” (TASLY BIOPHARMACEUTICALS CO., LTD., priority 2017, dated 2023).
At least one compound was matched to its structure with a doubt left. No end group written: not given here.

Settings: cited from earlier work

IVRRADRAAVPGGGGRGD [HM-3, Ile-Val-Arg-Arg-Ala-Asp-Arg-Ala-Ala-Val-Pro-Gly-Gly-Gly-Gly-Arg-Gly-Asp]
in vivo half-life: 27.66 ± 7.37 min
